Percent effect of library compounds

The values are deposited in ChEMBL (CHEMBL3988442, “University of Dundee, Small-Polar-MMV Screening Library” (2021)).

Values are the deposited “Percent Effect”, in %.
The controls that fix the scale are not given in the record; negative values are as filed.
This is an unselected part of the compounds tested.
A dash means the value is not listed here; it may have been measured.

T. brucei: 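Whole-parasite assay of Trypanosoma brucei over 72 hours; the read-out is not stated. Concentration: 30 µM. Direction is inferred from retests: higher values go with stronger inhibition. Values scatter widely below zero; nearly all retest evidence comes from the higher of the two concentrations used. Of about 64,000 compounds tested this way, about 940 (1.5%) reached 50% or more in at least one test.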
Toxoplasma: 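Assay of Toxoplasma gondii numbers, read through their beta-galactosidase reporter with a colour substrate. Compounds at 10 µM. Higher reads as fewer parasites (inferred from which compounds were picked for retests). About 67,000 compounds were tested under these conditions; 0.38% (about 260) showed 50% or more at least once.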

| # | structure | T. brucei | Toxoplasma |
|---|---|---|---|
| 1 | `O=C1CCCC2=C1C(c1cc(Cl)ccc1F)Nc1nonc1N2` (stereo not drawn) | - | -8.543 |
| 2 | `CNC(=O)C1(CCCc2ccncc2)CCN1.O=C(O)C(F)(F)F` (stereo not drawn) | -14.01 | 5.487 |
| 3 | `[H][C@@]12CN(C(=O)c3cccn3C)C[C@]1([H])C(=O)N(CCN1CCCC1)C2` | -28.51 | 9.132 |
| 4 | `[H][C@@]12CCN(C(C)=O)C[C@]1([H])CCN(C1CC1)C(=O)C2` | -34.38 | -2.96 |
| 5 | `CC(C)c1cc(C(=O)NCCCN(C)C)nc(N2CCCC2)n1` | 85.35 | 23.1 |
| 6 | `O=C(O)C(F)(F)F.[H][C@@]12CN(C(=O)c3ccoc3)C[C@]1([H])OCCN2C(C)C` | 3.848 | -7.07 |
| 7 | `CC(C)CC(NS(C)(=O)=O)C(=O)N(C)Cc1nnc2n1CCC2` (stereo not drawn) | -62.5 | -0.2157 |
| 8 | `CCCc1noc(CN2CCN(c3nccs3)CC2)n1` | - | 3.246 |
| 9 | `CC(C)C(=O)NC1CCCc2nc(N3CCOCC3)ncc21` (stereo not drawn) | 8.815 | -1.313 |
| 10 | `CN(C)CCNC(=O)CC1CCN(c2cccnn2)CC1` | -7.884 | -7.422 |
| 11 | `COC(=O)CCC(=O)N(Cc1ccc2cc[nH]c2c1)C1CC1` | -31.51 | -25.89 |
| 12 | `CC(C)CCN(C)C(=O)c1cc(CN2CCC(O)CC2)on1` | -5.602 | -0.2882 |
| 13 | `CC(C)c1nc2c(n1C)CCN(CC(=O)Nc1ccncc1)C2` | - | -13.45 |
| 14 | `CN(C)[C@@H]1CCN(C(=O)Cc2ccc(F)cc2)[C@H]1Cc1ccncc1.O=C(O)C(F)(F)F.O=C(O)C(F)(F)F` | -127.3 | 8.779 |
| 15 | `O=C(c1ccsc1)N1CCC2(CC1)CCN(S(=O)(=O)C1CC1)CC2` | 3.191 | -44.3 |
| 16 | `NC(=O)CNC(=O)c1cc(Cn2cnc3ccccc32)[nH]n1` | -29.56 | 9.07 |
| 17 | `COCCN1CCC(NC(=O)Cn2cc(C)c3ccccc32)CC1` | -18.41 | 5.851 |
| 18 | `NC(=O)c1cnc(NCC(=O)NCc2ccco2)c(Cl)c1` | -43.5 | 1.705 |
| 19 | `Cc1csc(C(Cc2ccsc2)NC(=O)CN(C)Cc2cccnc2)n1.Cl` (stereo not drawn) | 26.55 | -8.49 |
| 20 | `Cc1cc(C)c2[nH]c(=O)c(CN3CCCC4(C3)CN(C)C(=O)O4)cc2c1` (stereo not drawn) | -14.64 | -11.48 |
| 21 | `CCC(NC(=O)C1CCN(S(C)(=O)=O)CC1)c1ccc(C)cc1C` (stereo not drawn) | -2.4 | 8.263 |
| 22 | `O=C(CCc1cccc(Cl)c1Cl)N1CCOCC1c1ncon1` (stereo not drawn) | -15.46 | -3.542 |
| 23 | `CC(=O)NC(c1cc(F)ccc1F)C1CC1` (stereo not drawn) | -34.38 | 11.49 |
| 24 | `COc1ccnc(CN2CCCC(CCc3ccccc3)C2)c1OC` (stereo not drawn) | - | 3.824 |
| 25 | `Cc1cnn(C2CN(Cc3nc(-c4ccco4)no3)C2)c1` | 13.15 | 2.965 |
| 26 | `CCOc1ccc(C#N)cc1NCc1cc(C)on1` | -15.19 | -10.81 |
| 27 | `CC(C)Oc1ccc(C(O)CNCc2ccccc2C(F)(F)F)cc1` (stereo not drawn) | 11.97 | -0.2938 |
| 28 | `O=C(O)C(F)(F)F.O=C(O)c1c(-c2ccoc2)ncc2c1CCN(C1CCOC1)C2` (stereo not drawn) | -56.68 | -5.448 |
| 29 | `COCc1ncc(CN2C[C@@H](C(=O)O)[C@H](C(C)C)C2)cn1` | -38.41 | -9.474 |
| 30 | `Cl.Nc1nc(Nc2ccccc2)cc(N2CCNCC2)n1` | -11.41 | 18.96 |
| 31 | `CN(Cc1ccco1)C(=O)Nc1cc(C(F)(F)F)c[nH]c1=O` | 19.32 | -1.698 |
| 32 | `CCN(CC)C(=O)c1nc2c(s1)CCN(C(=O)Nc1ccccc1)CC2` | -7.047 | 5.059 |
| 33 | `COCCN1C(=O)CCC12CCN(C(=O)CNC(C)=O)CC2` | -6.372 | -1.953 |
| 34 | `CC(C)CN1CCN(S(=O)(=O)c2cn(C)cn2)Cc2cccnc21.O=C(O)C(F)(F)F.O=C(O)C(F)(F)F` | -23.14 | 6.968 |
| 35 | `c1ccc(-c2nc(CCNc3nnc(C4CCC4)o3)no2)cc1` | 99.59 | 28.62 |
| 36 | `O=C(O)C(F)(F)F.[H][C@@]12CN(CC3CC3)CCO[C@]1([H])CN(C(=O)c1cocn1)C2` | -42.2 | 9.407 |
| 37 | `CCOCC(O)CN1CCN(C(=O)Cc2ccc(C)nc2)CC1` (stereo not drawn) | -16.69 | -14.68 |
| 38 | `[H][C@@]12CCN(C(=O)c3cnn(C)c3)[C@@]1([H])CCN2c1ccccn1` | -38.15 | 3.346 |
| 39 | `CN(C)CC(Nc1nc(N)nc2c1CCNCC2)c1ccccc1` (stereo not drawn) | -22.78 | 4.074 |
| 40 | `O=C(O)C(F)(F)F.[H][C@@]12CCN(Cc3ccccc3)C[C@@]1([H])O[C@H](C(=O)NC1CC1)C2` | -18.89 | -7.336 |
| 41 | `CCN(C)C[C@@H]1CN(C(=O)c2cc(-c3ccc(F)cc3)n[nH]2)C[C@@H]1CO` | 7.525 | 8.234 |
| 42 | `CC(=O)NCCNC(=O)c1nc(C2CC2)n(-c2ccccc2Cl)n1` | - | 1.822 |
| 43 | `N#Cc1cccc(CN2Cc3nccn3CC(CN3CCCC3)C2)c1.O=C(O)C(F)(F)F.O=C(O)C(F)(F)F` (stereo not drawn) | -41.66 | -5.545 |
| 44 | `CSc1nnc(C2CCN(C(=O)N3CCCC3)CC2)n1C(C)C` | -5.265 | 20.61 |
| 45 | `c1cc(-c2noc(-c3cc(C4CC4)on3)n2)cc(N2CCCCC2)n1` | -100.1 | -0.4327 |
| 46 | `[H][C@@]12CN(C(=O)c3ccsc3)C[C@]1([H])C(=O)N(CC)C2` | -18.48 | -4.732 |
| 47 | `O=C(O)C(F)(F)F.[H][C@@]12CC(=O)N(Cc3csc(C)n3)[C@@]1([H])CCN2CC1CCOCC1` | -54.15 | 0.4545 |
| 48 | `CCc1ccc(CN(Cc2ccco2)C(C)C(C)C)nc1` (stereo not drawn) | -19.36 | -17.87 |
| 49 | `Cn1ccnc1CN1CCC2(CC1)CN(Cc1ccccc1)C(=O)CO2.O=C(O)C(F)(F)F` | -41.11 | 0.6772 |
| 50 | `O=C1CN(C(=O)OCc2ccccc2)CC(O)CN1Cc1ccco1` (stereo not drawn) | -43.22 | -8.614 |
| 51 | `Cc1ncc(C(=O)Nc2cncnc2N(C)C)c(Cl)c1Cl` | -34.06 | 1.233 |
| 52 | `CC(c1nc(C2CC2)no1)N1CCN(Cc2ccccc2F)CC1` (stereo not drawn) | 14.94 | 1.181 |
| 53 | `O=C(O)C(F)(F)F.O=C(c1cccnc1)N1CCc2ncnc(N3CCOCC3)c2CC1` | -22.96 | -2.682 |
| 54 | `O=C(O)C(F)(F)F.c1csc(CN2Cc3nccn3CC(Cn3cncn3)C2)c1` (stereo not drawn) | -40.34 | 0.1818 |
| 55 | `Cc1ccc2oc([C@H]3CCN(Cc4ccccc4)C3)nc2c1` | -46.78 | 1.264 |
| 56 | `COCCNC(=O)Cn1ccc2ccc(F)cc21` | - | -0.8502 |
| 57 | `Cc1cc(C)n(-c2cncc(N3CCN(C(=O)CN(C)C)CC3)n2)n1` | -31.3 | -1.554 |
| 58 | `c1cc(C2CCN(c3cnccn3)CC2)ncn1` | -3.11 | 6.155 |
| 59 | `CC1COCCN1C(=O)Nc1cnc2c(cnn2C(C)C)c1` (stereo not drawn) | -13.4 | 8.775 |
| 60 | `CCN1CCC(CNS(=O)(=O)N2CCc3ccccc3C2)C1` (stereo not drawn) | -12.66 | -4.076 |
| 61 | `CC(=O)N[C@@H]1CN(C(=O)CC2CCOCC2)C[C@H]1O` | - | 7.494 |
| 62 | `Cc1cccc(CN2C[C@@H](CN3CCCN(C)CC3)C[C@H](CO)C2)n1` | -10.95 | 2.256 |
| 63 | `Cc1ccc(CN2CCCn3cnc(COCC4CC4)c3C2)o1.O=C(O)C(F)(F)F` | 14.36 | 3.448 |
| 64 | `CCc1ccc(C2CC(=O)Nc3cc(NS(C)(=O)=O)ccc32)o1` (stereo not drawn) | -2.641 | 4.174 |
| 65 | `O=C(NCCNc1ncccn1)C1CC(=O)N(CC2CC2)C1` (stereo not drawn) | -39.05 | 30.47 |
| 66 | `Cn1ccc(CN2CCCC(CNS(C)(=O)=O)C2)cc1=O` (stereo not drawn) | -6.326 | -3.255 |
| 67 | `COc1c(Br)cccc1CCNC(=O)c1ccon1` | -23.52 | 5.079 |
| 68 | `CCC(C)n1cnc(S(=O)(=O)N(Cc2cccnc2)C(C)C)c1` (stereo not drawn) | -35.7 | 2.488 |
| 69 | `Cc1cncc(C(=O)N2CCC3(CC2)C(=O)Nc2ccccc23)c1` | -179.9 | 16.98 |
| 70 | `CCOC(=O)N1CCN(c2nc(NC)c3ccccc3n2)CC1` | 32.47 | 3.467 |
| 71 | `Cc1cc(C[C@@H]2CCC[C@H]2NCc2cc(F)ccc2F)on1.O=C(O)CC(O)(CC(=O)O)C(=O)O` | -20.07 | 5.717 |
| 72 | `CN(C)C(=O)N1CCCC(C(=O)N(C)Cc2cnc(N)nc2)C1` (stereo not drawn) | -0.3245 | 1.057 |

Repeated from the top, 4 entries:

structure	T. brucei	Toxoplasma
O=C1CCCC2=C1C(c1cc(Cl)ccc1F)Nc1nonc1N2 (stereo not drawn)	-	-8.543
CNC(=O)C1(CCCc2ccncc2)CCN1.O=C(O)C(F)(F)F (stereo not drawn)	-14.01	5.487
[H][C@@]12CN(C(=O)c3cccn3C)C[C@]1([H])C(=O)N(CCN1CCCC1)C2	-28.51	9.132
[H][C@@]12CCN(C(C)=O)C[C@]1([H])CCN(C1CC1)C(=O)C2	-34.38	-2.96